For 25 compounds, survivor count and T/C results are on record in PubChem BioAssay AID330 (DTP/NCI, 2004).

This assay relates to P388 leukemia ip, CD2F1 mice, survival T/C. Put plainly: NCI In Vivo Anticancer Drug Screen. Data for tumor model P388 Leukemia (intraperitoneal) in CD2F1 (CDF1) mice. As to conditions: T/C endpoint: median survival time, higher T/C = longer survival.
Setting [1] is: dose: 50.0 mg/kg/injection, schedule: Q01DX009 (ip), vehicle: saline with Tween-80.
[2] abbreviates: dose: 200.0 mg/kg/injection, schedule: Q01DX005 (ip), vehicle: saline.
[3] abbreviates: dose: 200.0 mg/kg/injection, schedule: Q01DX005 (ip), vehicle: Klucel (hydroxypropylcellulose) (HPC).
Where [4] appears, read: dose: 60.0 mg/kg/injection, schedule: Q01DX005 (ip), vehicle: saline with Tween-80.
Where [5] appears, read: dose: 120.0 mg/kg/injection, schedule: Q01DX005 (ip), vehicle: saline with Tween-80.
Setting [6] is: dose: 240.0 mg/kg/injection, schedule: Q01DX005 (ip), vehicle: saline with Tween-80.
The mark [7] stands for this setting: dose: 50.0 mg/kg/injection, schedule: Q01DX005 (ip), vehicle: Klucel (hydroxypropylcellulose) (HPC).
The mark [8] stands for this setting: dose: 100.0 mg/kg/injection, schedule: Q01DX005 (ip), vehicle: Klucel (hydroxypropylcellulose) (HPC).
The mark [9] stands for this setting: dose: 60.0 mg/kg/injection, schedule: Q01DX005 (ip), vehicle: saline.
Where [10] appears, read: dose: 120.0 mg/kg/injection, schedule: Q01DX005 (ip), vehicle: saline.
Setting [11] is: dose: 240.0 mg/kg/injection, schedule: Q01DX005 (ip), vehicle: saline.
Where [12] appears, read: dose: 7.5 mg/kg/injection, schedule: Q01DX009 (ip), vehicle: saline with Tween-80.
Setting [13] is: dose: 400.0 mg/kg/injection, schedule: Q04DX003 (ip), vehicle: Klucel (hydroxypropylcellulose) (HPC).

Each structure is given as a SMILES string. The list does not hold the whole screen: it is rich in T/C values a quarter to a half above the control, in often repeated tests (any T/C) and in doses without a T/C. Other doses and runs of a compound stand elsewhere. T/C is the treated group as % of the vehicle group. Some doses have a count of surviving animals in place of a T/C: the source files T/C as zero there, which appears to mark a toxic dose or a test without result, not a measured value. Some survivor counts are full or nearly so, which does not show that the dose was tolerated: the source hardly ever lists a survival T/C far under the control, and the zero likely stands for such cases as well. Survivors were counted at the toxicity check, usually on the fifth day, unless a day is given; later deaths do not show. Schedules are NCI's codes, taken here to give the interval after Q, in days (D) or hours (H), and the number of doses after X. Some doses were run more than once; their values stand side by side, smallest first. Some structures stand for samples that the source files as different forms (salt, stereo form or complex); doses refer to the form tested. Where survival is the endpoint, the PubChem record calls one and a half times the control and up active, and a quarter to a half above the control has no call in these data; cut-offs in other NCI protocols can differ.

As to `COc1cccc2c1C(=O)c1c(O)c3c(c(O)c1C2=O)CC(O)(/C(C)=N/NC(=O)CCCCCCCCC(=O)N/N=C(\C)C1(O)Cc2c(O)c4c(c(O)c2C(OC2CC(N)C(O)C(C)O2)C1)C(=O)c1c(OC)cccc1C4=O)CC3OC1CC(N)C(O)C(C)O1` (configuration not stated), under “dose: 50.0 mg/kg/injection, schedule: Q01DX009 (ip), vehicle: water”, the survivor count is 3 of 3.

In the case of `CCn1c(=O)c2[nH]c(Cl)nc2n(CC(C)Cl)c1=O` (configuration not stated), the survivor count (dose: 200.0 mg/kg/injection, schedule: Q01DX009 (ip), vehicle: Klucel (hydroxypropylcellulose) (HPC)) is 0 of 6.

`Cc1ccnc(N=C2N=C(Nc3cc(C)ccn3)c3ccccc32)c1`: under setting [1], the survivor count is given as 6 of 6.

With `CCCCCCCCCCCCO[P+](=O)OCCCCCCCCCCCC`, under “dose: 200.0 mg/kg/injection, schedule: Q01DX009 (ip), vehicle: saline sonified”, the T/C was 125 % of control.

For the compound `CCN(CC)CCOC(=O)c1ccc(NC(=S)Nc2ccccc2)cc1`, where the note is “dose: 200.0 mg/kg/injection, schedule: Q01DX005 (ip), vehicle: saline with Tween-80”, the survivor count was 3 of 5.

As for `c1ccc(CN2CSC3CCCCC32)cc1` (configuration not stated), under setting [2], the T/C is 128 % of control.

As for `Nc1cccc2c1C(=O)c1cccc3snc-2c13`, the survivor count under setting [3] is 3 of 6.

For the compound `Cn1c(=S)sc2nc3ccccc3n2c1=S`, the T/C under setting [4] was 129 % of control and the T/C under setting [5] was 128 % of control. In addition, the survivor count under setting [6] was 4 of 6 and 5 of 6.

In the case of `Nc1nnc2nc(CC(=O)c3cccc([N+](=O)[O-])c3Cl)c(=O)[nH]n12`, the survivor count reads like this: under setting [5], 0 of 6; under setting [6], 0 of 6.

With `C=C1C(=O)O[C@@H]2[C@@H]3O[C@@](C)(CC[C@H](OC(C)=O)[C@@H]3CO)C[C@@H](OC(=O)/C(=C\C)COC(C)=O)[C@@H]12`, the survivor count reads like this: under setting [7], 1 of 6; under setting [8], 0 of 6; under setting [3], 0 of 6.

As for `C=CCSC(=NC#N)SC`, the survivor count is on record as 0 of 6 under setting [7], 0 of 6 under setting [8] and 0 of 6 under setting [3].

On to `CCN(CC)CCNc1ccc([N+](=O)[O-])c2sc3ccccc3c(=O)c12`, for which the T/C by setting is: (dose: 25.0 mg/kg/injection, schedule: Q01DX009 (ip), vehicle: saline) 129 % of control; under setting [1], 142 and 144 % of control; (dose: 100.0 mg/kg/injection, schedule: Q01DX009 (ip), vehicle: saline with Tween-80) 145 % of control. For the same compound, the survivor count (dose: 400.0 mg/kg/injection, schedule: Q01DX009 (ip), vehicle: saline with Tween-80) is listed as 6 of 6.

As to `COC(C(N)=O)c1ccccc1` (configuration not stated), the survivor count (dose: 100.0 mg/kg/injection, schedule: Q01DX009 (ip), vehicle: saline) was 6 of 6.

Consider `CCOC(=O)c1ccccc1-n1nnc(C#N)c1N`, for which, under setting [3], the survivor count is 0 of 6.

For `Cc1cc(C)c2c(n1)sc1c(=O)n(N)c(C)nc12`, the survivor count reads like this: under setting [4], 6 of 6; under setting [5], 5 of 6 and 6 of 6.

As for `CN1C(c2cccnc2)=NCC12CCCC2`, the survivor count by setting is: under setting [9], 1 of 6; under setting [10], 0 of 6; under setting [11], 0 of 6.

On to `CCCCN(CCCC)CCCNc1c2c(nc3ccccc13)CCCC2`, for which the survivor count runs as follows: (dose: 100.0 mg/kg/injection, schedule: Q01DX005 (ip), vehicle: saline) 0 of 5; under setting [2], 0 of 5.

In the case of `CN(C)N=Nc1ccc(NC(N)=O)cc1`, the survivor count was 1 of 6 (dose: 200.0 mg/kg/injection, schedule: Q04DX003 (ip), vehicle: saline + Tween-80 + alcohol) and 0 of 6 (dose: 400.0 mg/kg/injection, schedule: Q04DX003 (ip), vehicle: saline + Tween-80 + alcohol).

Take `COc1cccc(Sc2ccc([N+](=O)[O-])c3no[n+]([O-])c23)c1`: the survivor count runs as follows: (dose: 3.75 mg/kg/injection, schedule: Q01DX009 (ip), vehicle: saline with Tween-80) 6 of 6; under setting [12], 6 of 6; (dose: 15.0 mg/kg/injection, schedule: Q01DX009 (ip), vehicle: saline with Tween-80) 6 of 6; (dose: 30.0 mg/kg/injection, schedule: Q01DX009 (ip), vehicle: saline with Tween-80) 3 of 6 and 4 of 6; (dose: 60.0 mg/kg/injection, schedule: Q01DX009 (ip), vehicle: saline with Tween-80) 0 of 6 and 1 of 6. For the same compound, the T/C under setting [12] was 137 % of control.

In the case of `COC(=O)C1(OC(=O)CCC(=O)O)C(=O)NC2=C1C(=O)c1ccccc1C2=O` (configuration not stated), the T/C (dose: 100.0 mg/kg/injection, schedule: Q01DX005 (ip), vehicle: saline with Tween-80) is 126 and 129 % of control. In addition, for the setting “dose: 400.0 mg/kg/injection, schedule: Q01DX005 (ip), vehicle: saline with Tween-80”, the survivor count is listed as 3 of 6.

`COc1cccc2c1C(=N)c1c(O)c3c(c(O)c1C2=O)CC(O)(C(=O)CO)CC3OC1CC(N2CCOCC2C#N)C(O)C(C)O1` (configuration not stated): the T/C reads like this: (dose: 0.25 mg/kg/injection, schedule: Q04DX003 (ip), vehicle: saline) 148 % of control; (dose: 0.5 mg/kg/injection, schedule: Q04DX003 (ip), vehicle: saline) 145 % of control. Also, the survivor count (dose: 2.0 mg/kg/injection, schedule: Q04DX003 (ip), vehicle: saline) was 5 of 6 on day 9.

As to `OCCN1CCN(CC/C=C2/c3ccccc3Sc3ccc(C(F)(F)F)cc32)CC1`, the T/C is 129 % of control (dose: 20.0 mg/kg/injection, schedule: Q04DX003 (ip), vehicle: saline); 126 and 135 % of control (dose: 40.0 mg/kg/injection, schedule: Q04DX003 (ip), vehicle: saline); 135 % of control (dose: 80.0 mg/kg/injection, schedule: Q04DX003 (ip), vehicle: saline).

Turning to `Cn1c(=O)c2snnc2n(C)c1=O`, the survivor count under setting [13] is given as 0 of 6.

For the compound `NC(=O)C1C2C=CC(O2)C1C(=O)O` (configuration not stated), the survivor count was 0 of 6 under setting [9], 0 of 6 under setting [10] and 0 of 6 under setting [11].

On to `N=C(N)c1nn[nH]n1`, for which the survivor count under setting [13] is listed as 1 of 6.
